Experimental findings from PMC10869800 are described below.

The chains behind the UniProt entries cited, without tags or fusion partners.
UniProt O14965: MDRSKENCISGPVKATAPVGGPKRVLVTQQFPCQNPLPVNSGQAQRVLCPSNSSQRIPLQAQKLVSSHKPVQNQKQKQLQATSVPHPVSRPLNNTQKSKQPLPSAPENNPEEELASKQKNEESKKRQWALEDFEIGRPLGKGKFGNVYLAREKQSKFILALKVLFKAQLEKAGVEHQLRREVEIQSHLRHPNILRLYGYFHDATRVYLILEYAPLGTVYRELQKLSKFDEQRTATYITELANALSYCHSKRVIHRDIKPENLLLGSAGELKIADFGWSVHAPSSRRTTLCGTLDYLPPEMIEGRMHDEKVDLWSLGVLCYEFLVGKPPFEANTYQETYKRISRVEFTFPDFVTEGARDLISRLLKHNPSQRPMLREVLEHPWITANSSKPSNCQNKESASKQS

Read-outs that look alike come from different tables or passages of the source. Results are given in words; binding and its absence hold for the method and conditions named. Binding seen in cells or lysates may run through a third protein. Here binding means that the protein was enriched with, or labelled near, the bait; the list need not be complete. Where a sequence is shown, tags or fusion partners need not be part of it.

Assay [1] addresses T1, Myc-BioID2-EYA4 (human) (UniProt O95677).
T1 sequence: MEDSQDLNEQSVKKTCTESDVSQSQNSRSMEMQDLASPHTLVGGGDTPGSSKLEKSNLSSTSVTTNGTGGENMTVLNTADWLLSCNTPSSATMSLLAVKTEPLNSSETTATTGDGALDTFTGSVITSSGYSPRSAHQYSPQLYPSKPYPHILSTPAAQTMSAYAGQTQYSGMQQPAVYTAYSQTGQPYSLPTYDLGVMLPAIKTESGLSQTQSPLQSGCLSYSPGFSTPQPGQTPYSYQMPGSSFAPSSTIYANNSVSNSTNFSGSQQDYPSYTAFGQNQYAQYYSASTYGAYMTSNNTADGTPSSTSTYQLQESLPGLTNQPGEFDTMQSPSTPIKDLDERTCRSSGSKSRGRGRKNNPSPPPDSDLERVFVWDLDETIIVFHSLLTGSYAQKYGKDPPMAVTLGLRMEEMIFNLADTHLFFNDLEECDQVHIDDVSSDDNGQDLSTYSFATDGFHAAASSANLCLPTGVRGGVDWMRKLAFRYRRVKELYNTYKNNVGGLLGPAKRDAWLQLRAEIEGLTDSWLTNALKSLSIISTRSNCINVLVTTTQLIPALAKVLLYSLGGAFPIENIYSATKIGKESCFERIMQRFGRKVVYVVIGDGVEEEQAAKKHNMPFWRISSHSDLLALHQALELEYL
In words: proximity labelling; BioID2: Myc-BioID2-EYA4 against a BioID2-Myc control, transfected in 293T, 50 µM biotin for 24 h, streptavidin-coated Dynabeads, LC-MS/MS with label-free quantification.

Assay [2] deals with T1, Myc-BioID2-EYA4 (human). The assay is described as above. This is another data set of the same source.

Consider “Aurora kinase A (AURKA), endogenous (from UniProt O14965 1-403)”, for which the binding entry in the assay with Myc-BioID2-EYA4 (human) [1] is “binds”.
As to “Polo-like kinase 1 (PLK1), endogenous (from UniProt P53350 1-603)”, in the assay with Myc-BioID2-EYA4 (human) [1], the binding entry is “binds”.

B1: SIX1, endogenous (protein, UniProt Q15475 1-284)
chain: MSMLPSFGFTQEQVACVCEVLQQGGNLERLGRFLWSLPACDHLHKNESVLKAKAVVAFHRGNFRELYKILESHQFSPHNHPKLQQLWLKAHYVEAEKLRGRPLGAVGKYRVRRKFPLPRTIWDGEETSYCFKEKSRGVLREWYAHNPYPSPREKRELAEATGLTTTQVSNWFKNRRQRDRAAEAKERENTENNNSSSNKQNQLSPLEGGKPLMSSSEEEFSPPQSPDQNSVLLLQGNMGHARSSNYSLPGLTASQPSHGLQTHQHQLQDSLLGPLTSSLVDLGS
With B1, the binding entry with Myc-BioID2-EYA4 (human) [2] is recorded as “binds”.
